Data as given in patent US8529872B2, “Seeds and markers for use in imaging” (Board of Regents, The University of Texas System, priority 2007, dated 2013).

Assay: MRI of capsules/hollow contrast markers filled with contrast agent
Settings: for contrast in MRI: 1.5-T MRI

Row | Substance | contrast in MRI | other results
1 | (CoCl2)0.9(C2H5NO2)0.1 | – | MRI visualization in glass and polymer capsules (aqua solution 0.3-10%, 1.5 T, 3 T, and 7 T MRI, quantities as low as 0.3 μL): well visulalized
2 | (CoCl2)0.8(C2H5NO2)0.2 | – | MRI visualization in acrylic and glass hollow contrast markers (2-5 μL aqueous solution (10-1 wt. %), phantom, 1.5-T MRI (T1)): well visualized
3 | (CoCl2)n(C2H5NO2)1-n [Example C4] | positive contrast | –
4 | L-PG-Bz-DTPA-Gd | positive contrast | –
